Consider 1 substance from publication PMC6179184, “Interaction of the Warsaw breakage syndrome DNA helicase DDX11 with the replication fork-protection factor Timeless promotes sister chromatid cohesion” (PLoS Genetics, 2018).

The chains behind the UniProt entries cited, without tags or fusion partners.
UniProt Q9UNS1: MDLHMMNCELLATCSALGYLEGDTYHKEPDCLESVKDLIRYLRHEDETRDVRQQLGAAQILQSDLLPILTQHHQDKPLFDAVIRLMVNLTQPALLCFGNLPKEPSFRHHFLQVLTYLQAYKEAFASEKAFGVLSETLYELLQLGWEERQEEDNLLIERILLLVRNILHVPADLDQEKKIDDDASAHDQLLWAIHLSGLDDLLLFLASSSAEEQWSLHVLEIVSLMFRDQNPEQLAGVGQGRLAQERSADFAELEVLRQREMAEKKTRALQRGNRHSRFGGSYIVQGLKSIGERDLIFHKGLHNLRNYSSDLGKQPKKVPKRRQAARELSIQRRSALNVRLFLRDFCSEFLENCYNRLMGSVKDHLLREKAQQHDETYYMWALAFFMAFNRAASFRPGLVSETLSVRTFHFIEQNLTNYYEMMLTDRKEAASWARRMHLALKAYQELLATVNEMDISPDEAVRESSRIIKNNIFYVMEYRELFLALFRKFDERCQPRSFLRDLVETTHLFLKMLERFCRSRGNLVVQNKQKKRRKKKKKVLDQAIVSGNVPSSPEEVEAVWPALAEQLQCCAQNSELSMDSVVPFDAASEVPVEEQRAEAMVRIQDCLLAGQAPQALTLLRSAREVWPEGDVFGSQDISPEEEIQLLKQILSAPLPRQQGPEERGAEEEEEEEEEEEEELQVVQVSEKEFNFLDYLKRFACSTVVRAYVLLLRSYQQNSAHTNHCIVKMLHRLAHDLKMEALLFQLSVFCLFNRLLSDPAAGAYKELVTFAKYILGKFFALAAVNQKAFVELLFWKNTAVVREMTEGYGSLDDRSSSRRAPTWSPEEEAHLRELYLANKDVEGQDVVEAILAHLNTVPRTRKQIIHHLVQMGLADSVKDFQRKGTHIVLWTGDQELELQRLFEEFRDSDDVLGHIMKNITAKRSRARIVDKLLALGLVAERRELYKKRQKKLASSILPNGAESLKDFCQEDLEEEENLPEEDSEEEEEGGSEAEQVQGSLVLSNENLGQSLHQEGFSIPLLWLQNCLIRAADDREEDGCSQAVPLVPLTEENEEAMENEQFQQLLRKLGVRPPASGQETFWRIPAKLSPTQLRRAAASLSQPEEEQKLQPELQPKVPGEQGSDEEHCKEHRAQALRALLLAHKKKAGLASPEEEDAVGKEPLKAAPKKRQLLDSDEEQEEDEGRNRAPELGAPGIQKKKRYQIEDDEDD

Results are given in words; binding and its absence hold for the method and conditions named. Binding seen in cells or lysates may run through a third protein. Some binding calls cover weakened binding; strength is not graded here. Sequences can lack the tags named with a protein.

In this test the target is T1, DDX11-3xFlag K50R mutant (human) (UniProt Q96FC9).
T1 sequence: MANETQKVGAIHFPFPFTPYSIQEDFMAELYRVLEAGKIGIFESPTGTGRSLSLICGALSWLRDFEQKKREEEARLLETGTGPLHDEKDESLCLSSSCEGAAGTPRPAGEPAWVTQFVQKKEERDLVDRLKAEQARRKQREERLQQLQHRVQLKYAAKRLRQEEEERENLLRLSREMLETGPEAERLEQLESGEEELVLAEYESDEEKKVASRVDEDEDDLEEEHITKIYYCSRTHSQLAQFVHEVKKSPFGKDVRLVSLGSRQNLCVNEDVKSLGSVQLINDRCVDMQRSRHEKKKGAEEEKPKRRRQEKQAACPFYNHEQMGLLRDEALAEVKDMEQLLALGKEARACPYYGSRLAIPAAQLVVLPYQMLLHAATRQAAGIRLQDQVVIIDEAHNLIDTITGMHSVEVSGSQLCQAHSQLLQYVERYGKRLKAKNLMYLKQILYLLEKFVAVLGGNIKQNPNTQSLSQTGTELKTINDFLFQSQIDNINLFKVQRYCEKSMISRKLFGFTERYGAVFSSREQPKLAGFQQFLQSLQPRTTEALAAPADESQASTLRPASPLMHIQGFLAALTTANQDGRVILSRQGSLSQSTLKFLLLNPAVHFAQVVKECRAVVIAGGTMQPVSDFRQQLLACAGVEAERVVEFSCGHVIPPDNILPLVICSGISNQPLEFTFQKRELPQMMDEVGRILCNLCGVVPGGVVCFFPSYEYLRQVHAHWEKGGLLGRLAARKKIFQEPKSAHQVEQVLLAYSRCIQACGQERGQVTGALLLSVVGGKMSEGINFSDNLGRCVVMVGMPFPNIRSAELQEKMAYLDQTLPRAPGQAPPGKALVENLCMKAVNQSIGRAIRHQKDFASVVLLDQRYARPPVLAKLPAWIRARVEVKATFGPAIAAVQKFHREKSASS
Description: co-IP; whole cell extracts of HEK 293T cells transiently expressing DDX11-3xFlag (wild type or mutants), anti-Flag M2 agarose beads, 50 mM Tris-HCl pH 8.0, 150 mM NaCl, 0.25% Triton X-100, 10% glycerol, 2 hr at 4 C, elution with Flag peptide; Western blot of endogenous partners.

“endogenous Timeless (HEK 293T) (from UniProt Q9UNS1 1-1208)”: the binding result is listed as “binds”.
